Data published in article PMC8591536, “DNA asymmetry promotes SUMO modification of the single‐stranded DNA‐binding protein RPA” (The EMBO Journal, 2021).

Assays:
Siz2∆CT K109A = molecular target: T1, Siz2∆CT K109A (UniProt Q12216); assay: fluorescence polarization; settings: FP: 20 mM HEPES pH 7.5, 125 mM NaCl, 0.1% Tween-20, 23°C, 50 nM DNA (RPA/SUMO-RPA on ss32: 1 nM DNA, plus 5 mM MgCl2, 1 mM DTT); recombinant protein; residues 1-420; protein details: His6-thioredoxin removed with TEV; label: 5' 6-FAM on strand 1
T1 sequence (looked up): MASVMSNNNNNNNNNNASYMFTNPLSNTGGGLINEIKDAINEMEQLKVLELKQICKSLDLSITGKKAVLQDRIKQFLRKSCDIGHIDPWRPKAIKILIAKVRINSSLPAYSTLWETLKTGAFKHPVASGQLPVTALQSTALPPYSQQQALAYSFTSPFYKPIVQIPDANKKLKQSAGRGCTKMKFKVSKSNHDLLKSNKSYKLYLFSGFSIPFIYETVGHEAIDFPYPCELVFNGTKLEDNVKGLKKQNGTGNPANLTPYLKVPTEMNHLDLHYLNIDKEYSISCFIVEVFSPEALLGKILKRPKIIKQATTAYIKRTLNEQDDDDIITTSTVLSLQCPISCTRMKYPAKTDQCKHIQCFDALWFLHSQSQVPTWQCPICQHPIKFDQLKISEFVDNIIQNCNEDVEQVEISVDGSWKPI

Siz2∆CT K109E = molecular target: T2, Siz2∆CT K109E (UniProt Q12216); assay: fluorescence polarization; settings: FP: 20 mM HEPES pH 7.5, 125 mM NaCl, 0.1% Tween-20, 23°C, 50 nM DNA (RPA/SUMO-RPA on ss32: 1 nM DNA, plus 5 mM MgCl2, 1 mM DTT); recombinant protein; residues 1-420; protein details: His6-thioredoxin removed with TEV; label: 5' 6-FAM on strand 1
T2 sequence (looked up): T1 sequence (looked up) with A109E

Siz2∆CT K92A = molecular target: T3, Siz2∆CT K92A (UniProt Q12216); assay: fluorescence polarization; settings: FP: 20 mM HEPES pH 7.5, 125 mM NaCl, 0.1% Tween-20, 23°C, 50 nM DNA (RPA/SUMO-RPA on ss32: 1 nM DNA, plus 5 mM MgCl2, 1 mM DTT); recombinant protein; residues 1-420; protein details: His6-thioredoxin removed with TEV; label: 5' 6-FAM on strand 1
T3 sequence (looked up): T1 sequence (looked up) with K92A, A109K

Siz2∆CT K92E = molecular target: T4, Siz2∆CT K92E (UniProt Q12216); assay: fluorescence polarization; settings: FP: 20 mM HEPES pH 7.5, 125 mM NaCl, 0.1% Tween-20, 23°C, 50 nM DNA (RPA/SUMO-RPA on ss32: 1 nM DNA, plus 5 mM MgCl2, 1 mM DTT); recombinant protein; residues 1-420; protein details: His6-thioredoxin removed with TEV; label: 5' 6-FAM on strand 1
T4 sequence (looked up): T1 sequence (looked up) with K92E, A109K

Siz2∆CT R72A = molecular target: T5, Siz2∆CT R72A (UniProt Q12216); assay: fluorescence polarization; settings: FP: 20 mM HEPES pH 7.5, 125 mM NaCl, 0.1% Tween-20, 23°C, 50 nM DNA (RPA/SUMO-RPA on ss32: 1 nM DNA, plus 5 mM MgCl2, 1 mM DTT); recombinant protein; residues 1-420; protein details: His6-thioredoxin removed with TEV; label: 5' 6-FAM on strand 1
T5 sequence (looked up): T1 sequence (looked up) with R72A, A109K

Siz2∆CT R72E = molecular target: T6, Siz2∆CT R72E (UniProt Q12216); assay: fluorescence polarization; settings: FP: 20 mM HEPES pH 7.5, 125 mM NaCl, 0.1% Tween-20, 23°C, 50 nM DNA (RPA/SUMO-RPA on ss32: 1 nM DNA, plus 5 mM MgCl2, 1 mM DTT); recombinant protein; residues 1-420; protein details: His6-thioredoxin removed with TEV; label: 5' 6-FAM on strand 1
T6 sequence (looked up): T1 sequence (looked up) with R72E, A109K

Siz2∆CT R78A = molecular target: T7, Siz2∆CT R78A (UniProt Q12216); assay: fluorescence polarization; settings: FP: 20 mM HEPES pH 7.5, 125 mM NaCl, 0.1% Tween-20, 23°C, 50 nM DNA (RPA/SUMO-RPA on ss32: 1 nM DNA, plus 5 mM MgCl2, 1 mM DTT); recombinant protein; residues 1-420; protein details: His6-thioredoxin removed with TEV; label: 5' 6-FAM on strand 1
T7 sequence (looked up): T1 sequence (looked up) with R78A, A109K

Siz2∆CT R78E = molecular target: T8, Siz2∆CT R78E (UniProt Q12216); assay: fluorescence polarization; settings: FP: 20 mM HEPES pH 7.5, 125 mM NaCl, 0.1% Tween-20, 23°C, 50 nM DNA (RPA/SUMO-RPA on ss32: 1 nM DNA, plus 5 mM MgCl2, 1 mM DTT); recombinant protein; residues 1-420; protein details: His6-thioredoxin removed with TEV; label: 5' 6-FAM on strand 1
T8 sequence (looked up): T1 sequence (looked up) with R78E, A109K

Siz2 full length = molecular target: T9, Siz2 full length (UniProt Q12216); assay: EMSA; settings: 5 mM MgCl2; EMSA: same buffer with 5 mM MgCl2 (Fig 8 also 1 mM DTT), 23°C, 6% gel in 0.5x TBE; recombinant protein; protein details: His6-Smt3 removed with …; label: 5' 6-FAM on strand 2 (fw20)
T9 sequence (looked up, limits assumed): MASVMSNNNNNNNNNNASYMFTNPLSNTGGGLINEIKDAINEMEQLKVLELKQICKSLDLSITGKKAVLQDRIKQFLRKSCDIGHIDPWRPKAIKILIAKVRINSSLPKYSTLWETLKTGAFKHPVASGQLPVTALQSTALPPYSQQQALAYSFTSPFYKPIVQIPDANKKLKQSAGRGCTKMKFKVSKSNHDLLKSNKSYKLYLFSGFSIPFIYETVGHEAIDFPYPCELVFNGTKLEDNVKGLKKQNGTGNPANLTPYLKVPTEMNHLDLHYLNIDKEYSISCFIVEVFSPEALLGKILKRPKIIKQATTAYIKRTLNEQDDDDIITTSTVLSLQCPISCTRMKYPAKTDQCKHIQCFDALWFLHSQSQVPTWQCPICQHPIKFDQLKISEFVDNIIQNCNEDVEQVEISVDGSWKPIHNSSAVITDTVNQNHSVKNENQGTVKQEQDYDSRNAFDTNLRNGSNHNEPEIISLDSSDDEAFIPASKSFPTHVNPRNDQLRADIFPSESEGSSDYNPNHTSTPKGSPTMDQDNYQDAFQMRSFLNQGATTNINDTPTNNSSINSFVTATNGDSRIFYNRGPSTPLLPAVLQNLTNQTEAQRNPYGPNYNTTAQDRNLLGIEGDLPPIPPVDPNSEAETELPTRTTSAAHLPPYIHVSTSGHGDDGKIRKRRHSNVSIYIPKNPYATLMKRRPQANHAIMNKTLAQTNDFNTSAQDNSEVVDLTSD

[1] = test system: Siz2 full length + RPA∆WH; assay: EMSA; settings: Siz2 titrated into RPA∆WH-DNA, 5 mM MgCl2; EMSA: same buffer with 5 mM MgCl2 (Fig 8 also 1 mM DTT), 23°C, 6% gel in 0.5x TBE; recombinant protein; label: 5' 6-FAM on strand 2 (fw20)
Siz2∆CT = molecular target: T10, Siz2∆CT (UniProt Q12216); assay: fluorescence polarization; settings: FP: 20 mM HEPES pH 7.5, 125 mM NaCl, 0.1% Tween-20, 23°C, 50 nM DNA (RPA/SUMO-RPA on ss32: 1 nM DNA, plus 5 mM MgCl2, 1 mM DTT); recombinant protein; residues 1-420; protein details: His6-thioredoxin removed with TEV; label: 5' 6-FAM on strand 2 (fw20)
T10 sequence (looked up): T1 sequence (looked up) with A109K

[2] = test system: Siz2∆CT + RPA (Rfa1/Rfa2/Rfa3); assay: fluorescence polarization; settings: Siz2∆CT titrated into RPA-DNA; FP: 20 mM HEPES pH 7.5, 125 mM NaCl, 0.1% Tween-20, 23°C, 50 nM DNA (RPA/SUMO-RPA on ss32: 1 nM DNA, plus 5 mM MgCl2, 1 mM DTT); recombinant protein; label: 5' 6-FAM on strand 2 (fw20)
Siz2∆CT + RPA∆WH = assay: fluorescence polarization; settings: Siz2∆CT titrated into RPA∆WH-DNA, affinity comparable to RPA-DNA; FP: 20 mM HEPES pH 7.5, 125 mM NaCl, 0.1% Tween-20, 23°C, 50 nM DNA (RPA/SUMO-RPA on ss32: 1 nM DNA, plus 5 mM MgCl2, 1 mM DTT); recombinant protein; label: 5' 6-FAM on strand 2 (fw20)

Measured: binding result

GCTGTAGCTAGTTTTGCTTC (double strand) [6-FAM-ds20]
not listed: Siz2 full length | [1] | Siz2∆CT | [2] | Siz2∆CT + RPA∆WH
binds: all other assays above

GAAGCAAAACTAGCTACAGCTTTTTTTTTTTTTTTTTTTTTTTTTTTTTTTT / GCTGTAGCTAGTTTTGCTTC [6-FAM-ds20ss32]
binds: Siz2 full length | [1] | Siz2∆CT | [2] | Siz2∆CT + RPA∆WH

Residue numbers refer to the chain shown, from its start. The exact form of at least one protein or probe is not confirmed. At least one verdict was read from the data and is not stated in words by the source. For some of these results: Tags and fusion partners may be left off the protein sequences shown.
